Data as given in PMC9781217, “Discovery of Novel and Selective G-Protein Coupled Receptor 120 (GPR120) Agonists for the Treatment of Type 2 Diabetes Mellitus” (Molecules, 2022).

Experiments:
DIO mice = assay: Anti-hyperglycemic effects (OGTT, insulin) in DIO mice; format: in vivo, C57BL/6 mice; conditions: 20 mg/kg oral, glucose 2 g/kg
Method: Blood samples were collected with retro-orbital sinus puncture, and glucose levels were measured in accordance with the OGTT in normal mice. Plasma insulin levels were measured using a mouse insulin RIA kit (Beijing North Institute of Biological Technology, Beijing, China).

[1] = stated in introduction, ref not given; cited from earlier work
[2] = Pharmacokinetic analysis in C57BL/6 mice; conditions: male, C57BL/6, mouse, in vivo, po, 10 mg/kg

- AUC [2]: 1410 ± 158 ng·h/mL
- Cmax [2]: 1890 ± 255 ng/mL
- half-life [2]: 36 ± 12 min
SMILES: Cc1ccc(-c2ccc(F)cc2COc2ccc(CCC(=O)O)cc2)cc1 [TUG-891, reference compound]
- glucose AUC0–120 min (DIO mice): significantly lower than that of vehicle-treated mice
- half-life in vivo [1]: short half-life
- plasma clearance in vivo [1]: high plasma clearance
